No constants are given. Whether binding was seen depends on the method and setting. Binding seen in cells or lysates may run through a third protein. Some entries that bind do so weakly or less than the wild type. Tags and fused reporters may be left off the sequences shown.

By UniProt entry, the sequences of proteins in these tests, tags left out. Residues count along the entry.
UniProt Q09472, residues 2-2414: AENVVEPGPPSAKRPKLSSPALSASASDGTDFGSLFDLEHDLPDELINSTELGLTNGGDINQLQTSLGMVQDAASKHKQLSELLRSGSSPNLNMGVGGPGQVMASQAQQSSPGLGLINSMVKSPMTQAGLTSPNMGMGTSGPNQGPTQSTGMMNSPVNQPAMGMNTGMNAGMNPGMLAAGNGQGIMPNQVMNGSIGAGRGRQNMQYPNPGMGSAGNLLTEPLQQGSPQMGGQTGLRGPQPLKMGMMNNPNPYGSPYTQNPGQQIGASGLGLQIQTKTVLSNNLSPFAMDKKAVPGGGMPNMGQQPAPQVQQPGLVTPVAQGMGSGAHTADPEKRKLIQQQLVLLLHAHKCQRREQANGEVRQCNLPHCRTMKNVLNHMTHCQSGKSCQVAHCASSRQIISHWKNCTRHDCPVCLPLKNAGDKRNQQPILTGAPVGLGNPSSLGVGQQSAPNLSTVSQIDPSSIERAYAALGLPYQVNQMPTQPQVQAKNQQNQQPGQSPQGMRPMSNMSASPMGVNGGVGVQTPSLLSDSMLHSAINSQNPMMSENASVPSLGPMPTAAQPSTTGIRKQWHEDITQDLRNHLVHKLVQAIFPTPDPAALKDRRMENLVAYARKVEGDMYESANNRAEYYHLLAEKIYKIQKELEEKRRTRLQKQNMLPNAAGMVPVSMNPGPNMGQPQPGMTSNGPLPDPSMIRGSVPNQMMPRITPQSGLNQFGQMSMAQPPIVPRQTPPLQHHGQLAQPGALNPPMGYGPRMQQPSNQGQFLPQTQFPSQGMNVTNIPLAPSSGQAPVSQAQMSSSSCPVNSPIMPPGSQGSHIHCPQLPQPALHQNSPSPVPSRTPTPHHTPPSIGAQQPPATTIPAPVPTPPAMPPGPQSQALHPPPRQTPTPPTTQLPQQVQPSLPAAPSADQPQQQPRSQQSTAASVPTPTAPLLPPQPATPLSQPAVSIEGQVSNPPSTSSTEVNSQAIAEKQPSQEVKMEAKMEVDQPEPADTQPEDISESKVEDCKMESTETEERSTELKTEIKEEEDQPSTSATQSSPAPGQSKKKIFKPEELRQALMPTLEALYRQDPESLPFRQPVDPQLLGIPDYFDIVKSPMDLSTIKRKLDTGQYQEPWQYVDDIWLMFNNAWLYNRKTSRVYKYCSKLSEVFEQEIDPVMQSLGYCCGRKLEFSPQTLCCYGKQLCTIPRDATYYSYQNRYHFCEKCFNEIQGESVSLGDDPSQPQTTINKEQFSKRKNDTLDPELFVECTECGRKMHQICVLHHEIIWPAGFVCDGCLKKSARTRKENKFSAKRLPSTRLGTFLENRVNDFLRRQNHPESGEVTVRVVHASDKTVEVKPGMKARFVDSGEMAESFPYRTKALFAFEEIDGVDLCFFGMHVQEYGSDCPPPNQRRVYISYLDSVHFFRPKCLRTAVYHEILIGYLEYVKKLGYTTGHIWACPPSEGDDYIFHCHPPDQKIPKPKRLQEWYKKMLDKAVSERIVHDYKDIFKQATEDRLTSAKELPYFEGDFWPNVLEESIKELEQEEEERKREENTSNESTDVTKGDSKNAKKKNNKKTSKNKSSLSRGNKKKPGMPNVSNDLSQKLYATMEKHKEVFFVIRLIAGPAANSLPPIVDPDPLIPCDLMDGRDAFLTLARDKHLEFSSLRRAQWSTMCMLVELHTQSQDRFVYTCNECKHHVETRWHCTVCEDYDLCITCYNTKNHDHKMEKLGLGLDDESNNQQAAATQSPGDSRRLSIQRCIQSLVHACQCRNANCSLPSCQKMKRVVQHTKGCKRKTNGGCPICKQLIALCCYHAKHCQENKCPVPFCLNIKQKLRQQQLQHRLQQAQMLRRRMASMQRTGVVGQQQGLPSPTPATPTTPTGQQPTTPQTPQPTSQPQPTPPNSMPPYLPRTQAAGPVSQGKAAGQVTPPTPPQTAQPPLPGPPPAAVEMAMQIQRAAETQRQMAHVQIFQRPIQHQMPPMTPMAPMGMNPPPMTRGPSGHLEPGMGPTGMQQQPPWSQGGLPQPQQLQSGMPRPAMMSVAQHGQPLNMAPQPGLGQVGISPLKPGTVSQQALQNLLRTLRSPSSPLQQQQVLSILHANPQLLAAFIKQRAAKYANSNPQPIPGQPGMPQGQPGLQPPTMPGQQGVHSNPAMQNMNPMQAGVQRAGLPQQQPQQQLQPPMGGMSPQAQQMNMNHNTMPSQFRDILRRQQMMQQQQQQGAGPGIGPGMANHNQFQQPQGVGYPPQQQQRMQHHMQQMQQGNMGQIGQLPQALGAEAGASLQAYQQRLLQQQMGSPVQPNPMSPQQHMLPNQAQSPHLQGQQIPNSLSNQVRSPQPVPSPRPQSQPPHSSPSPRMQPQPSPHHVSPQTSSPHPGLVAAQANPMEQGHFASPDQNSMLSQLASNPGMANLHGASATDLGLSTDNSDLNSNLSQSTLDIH

Assay [1] deals with p300 (UniProt Q09472). In words: anti-Flag co-IP from 293T cells, Western blot for p300. Background: Immunoblotting shows a protein as a band on a membrane.
The target of assay [2] is p300 (UniProt Q09472). In words: anti-Flag co-IP, Western blot for p300.

B1: Flag-ETO-ΔNHR2 (protein, human, UniProt Q06455 1-604, looked up, not shown: small tags and cut ends)
chain: MISVKRNTWRALSLVIGDCRKKGNFEYCQDRTEKHSTMPDSPVDVKTQSRLTPPTMPPPPTTQGAPRTSSFTPTTLTNGTSHSPTALNGAPSPPNGFSNGPSSSSSSSLANQQLPPACGARQLSKLKRFLTTLQQFGNDISPEIGERVRTLVLGLVNSTLTIEEFHSKLQEATNFPLRPFVIPFLKANLPLLQRELLHCARLAKQNPAQYLAQHEQLLLDASTTSPVDSSELLLDVNENGKRRTPDRTKENGFDREPLHSEHPSKRPCTISPGQRYSPNNGLSYQPNGLPHPTPPPPQHYRLDDMAIAHHYRDSYRHPSHRDLRDRNRPMGLEDLKKGGGSSSSHSRQQSPVNPDPVALDAHREFLHRPASGYVPEEIWKKAEEAVNEVKRQAMTELQKAVSEAERKAHDMITTERAKMERTVAEAKRQAAEDALAVINQQEDSSESCWNCGRKASETCSGCNTARYCGSFCQHKDWEKHHHICGQTLQAQQQGDTPAVSSSVTPNSGAGSPMDTPPAATPRSTTPGTPSTIETTPR
Regarding B1, in the assay with p300 [1], the binding entry is reported as “binds”.

B2: Flag-ETO (protein, human, UniProt Q06455 1-604, looked up, not shown: small tags and cut ends)
chain: MISVKRNTWRALSLVIGDCRKKGNFEYCQDRTEKHSTMPDSPVDVKTQSRLTPPTMPPPPTTQGAPRTSSFTPTTLTNGTSHSPTALNGAPSPPNGFSNGPSSSSSSSLANQQLPPACGARQLSKLKRFLTTLQQFGNDISPEIGERVRTLVLGLVNSTLTIEEFHSKLQEATNFPLRPFVIPFLKANLPLLQRELLHCARLAKQNPAQYLAQHEQLLLDASTTSPVDSSELLLDVNENGKRRTPDRTKENGFDREPLHSEHPSKRPCTISPGQRYSPNNGLSYQPNGLPHPTPPPPQHYRLDDMAIAHHYRDSYRHPSHRDLRDRNRPMGLHGTRQEEMIDHRLTDREWAEEWKHLDHLLNCIMDMVEKTRRSLTVLRRCQEADREELNYWIRRYSDAEDLKKGGGSSSSHSRQQSPVNPDPVALDAHREFLHRPASGYVPEEIWKKAEEAVNEVKRQAMTELQKAVSEAERKAHDMITTERAKMERTVAEAKRQAAEDALAVINQQEDSSESCWNCGRKASETCSGCNTARYCGSFCQHKDWEKHHHICGQTLQAQQQGDTPAVSSSVTPNSGAGSPMDTPPAATPRSTTPGTPSTIETTPR
As for B2, the binding entry with p300 [2] and with p300 [1] was “binds” each time.

The values are drawn from patent publication US20140348840A1.
